Laboratory results as given in the supplement of paper PMC4862054.
Small differences around the control level are noise.

What was measured:
Assay in all cases: normalised response (% of control), CellTox Green; higher = less cell death (100 = DMSO, 0 = benzethonium chloride kill control)
Conditions in all cases: incubation time: 72 h
MCF-10A [1] = tested on: MCF-10A
Procedure: (§1)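 DSRT, 72 h incubation, CellTox Green / CellTiter-Glo readout. Signal is normalised to DMSO and benzethonium chloride controls. Value is the normalised response at the lowest tested concentration.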

Hs578T [2] = tested on: Hs578T
Procedure: as §1

CAL-85-1 [3] = tested on: CAL-85-1
Procedure: as §1

MFM-223 [4] = tested on: MFM-223
Procedure: as §1

BT-549 [5] = tested on: BT-549
Procedure: as §1

CAL-120 [6] = tested on: CAL-120
Procedure: as §1

HDQ-P1 [7] = tested on: HDQ-P1
Procedure: as §1

CAL-148 [8] = tested on: CAL-148
Procedure: as §1

DU-4475 [9] = tested on: DU-4475
Procedure: as §1

MDA-MB-231 [10] = tested on: MDA-MB-231
Procedure: as §1

HCC1599 [11] = tested on: HCC1599
Procedure: as §1

BT-474 [12] = tested on: BT-474
Procedure: as §1

HCC1937 [13] = tested on: HCC1937
Procedure: as §1

MDA-MB-453 [14] = tested on: MDA-MB-453
Procedure: as §1

CAL-51 [15] = tested on: CAL-51
Procedure: as §1

HCC1143 [16] = tested on: HCC1143
Procedure: as §1

MCF-10A [17] = tested on: MCF-10A; remark: listed apart in the source
Procedure: (§2)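 DSRT, 72 h incubation, CellTox Green / CellTiter-Glo readout. Signal is normalised to DMSO and benzethonium chloride controls. Value is the normalised response at dose 2.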

Hs578T [18] = tested on: Hs578T; remark: listed apart in the source
Procedure: as §2

CAL-85-1 [19] = tested on: CAL-85-1; remark: listed apart in the source
Procedure: as §2

MFM-223 [20] = tested on: MFM-223; remark: listed apart in the source
Procedure: as §2

BT-549 [21] = tested on: BT-549; remark: listed apart in the source
Procedure: as §2

MDA-MB-436 [22] = tested on: MDA-MB-436
Procedure: as §2

CAL-120 [23] = tested on: CAL-120; remark: listed apart in the source
Procedure: as §2

MDA-MB-468 [24] = tested on: MDA-MB-468
Procedure: as §2

HDQ-P1 [25] = tested on: HDQ-P1; remark: listed apart in the source
Procedure: as §2

CAL-148 [26] = tested on: CAL-148; remark: listed apart in the source
Procedure: as §2

DU-4475 [27] = tested on: DU-4475; remark: listed apart in the source
Procedure: as §2

MDA-MB-231 [28] = tested on: MDA-MB-231; remark: listed apart in the source
Procedure: as §2

HCC1599 [29] = tested on: HCC1599; remark: listed apart in the source
Procedure: as §2

BT-474 [30] = tested on: BT-474; remark: listed apart in the source
Procedure: as §2

HCC1937 [31] = tested on: HCC1937; remark: listed apart in the source
Procedure: as §2

MDA-MB-453 [32] = tested on: MDA-MB-453; remark: listed apart in the source
Procedure: as §2

CAL-51 [33] = tested on: CAL-51; remark: listed apart in the source
Procedure: as §2

HCC1143 [34] = tested on: HCC1143; remark: listed apart in the source
Procedure: as §2

MDA-MB-436 [35] = tested on: MDA-MB-436; remark: listed apart in the source
Procedure: as §1

MDA-MB-468 [36] = tested on: MDA-MB-468; remark: listed apart in the source
Procedure: as §1

Row | SMILES | normalised response (MCF-10A [1]) | normalised response (Hs578T [2]) | normalised response (CAL-85-1 [3]) | normalised response (MFM-223 [4]) | normalised response (BT-549 [5]) | normalised response (CAL-120 [6]) | normalised response (HDQ-P1 [7]) | normalised response (CAL-148 [8]) | normalised response (DU-4475 [9]) | normalised response (MDA-MB-231 [10]) | normalised response (HCC1599 [11]) | normalised response (BT-474 [12]) | normalised response (HCC1937 [13]) | normalised response (MDA-MB-453 [14]) | normalised response (CAL-51 [15]) | normalised response (HCC1143 [16]) | normalised response (MCF-10A [17]) | normalised response (Hs578T [18]) | normalised response (CAL-85-1 [19]) | normalised response (MFM-223 [20]) | normalised response (BT-549 [21]) | normalised response (MDA-MB-436 [22]) | normalised response (CAL-120 [23]) | normalised response (MDA-MB-468 [24]) | normalised response (HDQ-P1 [25]) | normalised response (CAL-148 [26]) | normalised response (DU-4475 [27]) | normalised response (MDA-MB-231 [28]) | normalised response (HCC1599 [29]) | normalised response (BT-474 [30]) | normalised response (HCC1937 [31]) | normalised response (MDA-MB-453 [32]) | normalised response (CAL-51 [33]) | normalised response (HCC1143 [34]) | normalised response (MDA-MB-436 [35]) | normalised response (MDA-MB-468 [36])
1 | COc1cc(F)c(F)c(Nc2ccc(I)cc2F)c1NS(=O)(=O)C1(C[C@H](O)CO)CC1 [Refametinib] (1 nM) | 105% | 98.7% | 97.7% | 88.8% | 89% | 97.6% | 91.4% | 99.3% | 94.3% | 103% | 94.2% | 91% | 86.7% | 104% | 74.1% | 101% |  |  |  |  |  |  |  |  |  |  |  |  |  |  |  |  |  |  |  | 
2 | CC(C)C[C@H](NC(=O)[C@H](Cc1ccccc1)NC(=O)c1cnccn1)B(O)O [Bortezomib] (1 nM) |  |  |  |  |  |  |  |  |  |  |  |  |  |  |  |  | 109% | 117% | 101% | 103% | 105% | 92.8% | 100% | 96.3% | 115% | 110% | 96.9% | 116% | 101% | 99.4% | 119% | 101% | 99.2% | 103% |  | 
3 | c1ccc2c(CCNc3ccc(Nc4ccncc4)cc3)c[nH]c2c1 [Serdemetan] (10 nM) |  |  |  |  |  |  |  |  |  |  |  |  |  |  |  |  | 105% | 120% | 102% | 93% | 99.8% | 84% | 99.9% | 88.4% | 111% | 102% | 97.9% | 74.5% | 92.1% | 98.8% | 91.7% | 51% | 94.5% | 103% |  | 
4 | CC1=C(/C=C/C(C)=C/C=C/C(C)=C/C(=O)O)C(C)(C)CCC1 [Tretinoin] (10 nM) |  |  |  |  |  |  |  |  |  |  |  |  |  |  |  |  | 95.4% | 129% | 112% | 101% | 102% | 107% | 98.4% | 152% | 111% | 109% | 94.2% | 114% | 102% | 106% | 120% | 95.5% | 83.1% | 108% |  | 
5 | Nc1nc(F)nc2c1ncn2[C@@H]1O[C@H](CO)[C@@H](O)[C@@H]1O [Fludarabine] (10 nM) |  |  |  |  |  |  |  |  |  |  |  |  |  |  |  |  | 108% | 70.1% | 97.9% | 104% | 89.3% | 93.7% | 99.9% | 69.3% | 118% | 104% | 108% | 107% | 119% | 101% | 67.1% | 79.7% | 113% | 80.1% |  | 
6 | COc1cc2c(N3CCN(C(=O)Nc4ccc(OC(C)C)cc4)CC3)ncnc2cc1OCCCN1CCCCC1 [Tandutinib] (0.1 nM) | 89.3% |  | 102% | 89.5% | 91.5% | 96.8% |  | 100% | 99.7% | 97.5% | 83.6% | 101% | 86.1% | 102% | 79% | 103% |  |  |  |  |  |  |  |  |  |  |  |  |  |  |  |  |  |  | 64.6% | 112%
7 | O=C(O)c1ccc(-c2c[nH]c3ncc(-c4ccccc4)cc23)cc1C1CCCC1 (1 nM) | 79.8% |  | 104% | 100% | 106% | 99% | 94.8% | 103% | 98.4% | 93.9% | 90.1% | 99.9% | 80% | 99.4% | 88.9% | 112% |  |  |  |  |  |  |  |  |  |  |  |  |  |  |  |  |  |  | 82.4% | 105%
8 | Nc1ccn([C@@H]2O[C@H](CO)[C@@H](O)C2(F)F)c(=O)n1 [Gemcitabine] (0.1 nM) | 102% | 101% | 107% | 104% | 98.1% | 103% | 57.9% | 101% | 104% |  | 102% | 99.9% | 112% |  | 94% | 119% |  |  |  |  |  |  |  |  |  |  |  |  |  |  |  |  |  |  |  | 118%
